Experimental data: PubChem BioAssay AID485314 (National Center for Advancing Translational Sciences (NCATS), 2010)
Hit rate of the full screen: of about 340,000 compounds, about 4,500 (1.3%) were called active. This list was built around the results that the source calls inconclusive (neither active nor inactive); the mix of calls is not that of the screen. The call rests on the fitted dose curve; in most records, active means well fitted inhibition curve with a large enough effect; inconclusive means small, poorly fitted or top-dose-only effect, or another doubt; inactive means no such curve, though single readings can be large or run the other way. A potency beside an inconclusive call is a rough fit, not a confirmed value.
On the % scale 0 is the no-effect control and ±100 the full control effect; potency means the concentration at half of the fitted maximal effect.

What follows are compounds tested against DNA polymerase beta (Homo sapiens) (UniProt P06746) (assay: qHTS Assay for Inhibitors of DNA Polymerase Beta). Details: Pol beta primer extension/strand displacement, fluorescence kinetic; activity change, negative = inhibition: at 114 µM (top of the series).
Outline: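 Values derive from four-parameter Hill fits of normalized kinetic data: reads at 0 and 10 min following addition of 50 nM substrate to 10 nM Pol beta preincubated 15 min with compound.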
`O=C(COCc1cc(-c2ccco2)on1)Nc1ccc(OC(F)(F)F)cc1` was tested, and the Potency was inconclusive: 0.282 µM [inhibitor, full curve, poor fit].
With `CCCCNC(=O)COC(=O)c1c2c(nc3ccccc13)/C(=C/c1cccs1)CC2` the Potency was active: 25.1 µM.
With `COc1ccc(S(=O)(=O)N(C)Cc2cccs2)cc1Br` the Potency was “inactive”.
For `COc1ccccc1CCNC(=O)c1cccn1-c1nnc(N2CCCCC2)s1`, the Potency was “inactive”.
In the case of `O=C(O)c1cccc(Cn2c(Cl)c(/C=N/NC(=O)c3ccccc3Cl)sc2=O)c1`, the Potency is reported as “inactive”.
For `Cc1cc(C)nc(NS(=O)(=O)c2ccc(NC(=O)c3ccccc3[N+](=O)[O-])cc2)n1`, the Potency was inconclusive: 100 µM [inhibitor, single point].
`CC(=O)c1cc(-c2ccccc2)n(CCC(=O)Nc2cc(C)cc(C)c2)c1C` was tested, and the Potency was “inactive”.
`O=C(NCCCc1ccccc1)C(=O)c1c[nH]c2ccccc12` was tested, and the Potency was inconclusive: 5.62 µM [inhibitor, single point].
In the case of `N/C(=N\OC(=O)c1cc(Cl)ccc1Cl)c1ccncc1`, the Potency is reported as inconclusive: 89.1 µM [inhibitor, single point].
With `Cc1csc2c(=O)sc(NC(=O)c3cccs3)nc12` the activity change, negative = inhibition was inconclusive: -73.5% [inhibitor].
With `Cn1c(C(=O)NCc2cccc(F)c2)cc2cc(S(=O)(=O)N3CCCCC3)ccc21` the Potency was “inactive”.
`Cn1cccc1-c1cc(C(=O)N/N=C/c2cccc(O)c2)[nH]n1` was tested, and the Potency was inconclusive: 1.78 µM [inhibitor, full curve, poor fit].
For `CCCCC#Cc1ccc(C(=O)NNC(=O)Nc2ccccc2)o1`, the Potency was inconclusive: 22.4 µM [inhibitor, partial curve, poor fit].
With `COc1cc(NS(=O)(=O)c2ccc3c(c2)C(C)(C)C(=O)N3C)cc(OC)c1` the Potency was inconclusive: 20 µM [inhibitor, partial curve].
With `CCOCCCNC(=O)c1ccc(C2SCC(=O)N2Cc2ccccc2)cc1` (stereo not drawn) the Potency was inconclusive: 89.1 µM [inhibitor, single point].
With `C[C@@H]1CN(c2c(F)c(N)c3c(=O)c(C(=O)O)cn(C4CC4)c3c2F)C[C@H](C)N1` the Potency was inconclusive: 44.7 µM [inhibitor, partial curve].
With `O=C(Cc1ccc(F)cc1)N(c1ccccc1)C1C=CS(=O)(=O)C1` (stereo not drawn) the Potency was “inactive”.
For `Cc1cc(C)nc(SCc2ccc(C(=O)N/N=C/c3ccco3)cc2)n1`, the Potency was active: 14.1 µM.
`O=c1cc(O)c2sc(Nc3ccc(F)cc3)nc2[nH]1` was tested, and the Potency was “inactive”.
For `O=C(NCCc1ccccc1)c1c[nH]c2ccc(S(=O)(=O)Nc3ccccc3F)cc2c1=O`, the Potency was inconclusive: 31.6 µM [inhibitor, full curve].
For `O=C(CSc1nnc(CNC(=O)c2c(F)cccc2F)o1)NCc1ccco1`, the Potency was active: 25.1 µM.
In the case of `COc1ccc(OC)c(NC(=O)N[C@H](Cc2ccccc2)C(=O)NN)c1`, the Potency is reported as inconclusive: 0.316 µM [inhibitor, full curve, poor fit].
`N#Cc1ccc(CN(c2ccncc2)S(=O)(=O)c2ccccc2)cc1` was tested, and the Potency was inconclusive: 25.1 µM [inhibitor, single point].
For `COC(=O)c1ccc(OC(=O)CN2C(=O)c3ccccc3C2=O)cc1`, the Potency was inconclusive: 39.8 µM [inhibitor, single point].
In the case of `Cc1ccc(S(=O)(=O)NNC(=O)C2COc3ccccc3O2)cc1` (stereo not drawn), the Potency is reported as inconclusive: 39.8 µM [inhibitor, single point].
`O=C(CSc1ncnc2nc[nH]c12)c1ccc2ccccc2c1` was tested, and the Potency was inconclusive: 89.1 µM [inhibitor, single point].
For `COc1ccc(C)cc1NC(=O)CCS(=O)(=O)c1ccc2c(c1)CC(=O)N2C`, the Potency was “inactive”.
For `O=C1CC(=O)N(c2ccccc2)N1c1ccccc1`, the Potency was inconclusive: 22.4 µM [inhibitor, single point].
With `CC(=O)c1sc(NC(=O)COc2ccc(Br)cc2)nc1C` the Potency was inconclusive: 3.55 µM [inhibitor, single point].
In the case of `CC(=O)c1cccc(NC(=O)c2ccc3c(c2)C(=O)N(Cc2cccnc2)C3=O)c1`, the Potency is reported as inconclusive: 0.891 µM [inhibitor, full curve, poor fit].
With `COc1cccc(/C=N/N2C(=O)CSC2=S)c1O` the Potency was inconclusive: 20 µM [inhibitor, full curve].
`CC(C)Cn1c(-c2csc(C(C)C)c2)n[nH]c1=S` was tested, and the Potency was inconclusive: 35.5 µM [inhibitor, partial curve].
With `COc1ccc(-n2c(SCC(N)=O)nnc2-c2ccc(NS(=O)(=O)c3ccc(C)cc3)cc2)cc1` the Potency was inconclusive: 0.316 µM [inhibitor, full curve, poor fit].
In the case of `CC1CN(C(=O)/C=C/c2ccccc2[N+](=O)[O-])CC(C)O1` (stereo not drawn), the Potency is reported as inconclusive: 31.6 µM [inhibitor, single point].
In the case of `O=C(COc1cccc2cccnc12)N/N=C1\SCC(=O)N1Cc1ccco1`, the Potency is reported as inconclusive: 39.8 µM [inhibitor, full curve].
For `Cc1ccc(OCCn2nnc3sc4c(c3c2=O)CCC(C(C)(C)C)C4)cc1` (stereo not drawn), the Potency was active: 22.4 µM.
For `COc1cc(/C=C2/NC(=O)NC2=O)ccc1OCC(=O)Nc1ccc(F)cc1`, the Potency was inconclusive: 7.94 µM [inhibitor, full curve].
In the case of `CC(C)c1ccc(NC(=O)c2cccn2-c2nnc(N3CCCCC3)s2)cc1`, the Potency is reported as inconclusive: 6.31 µM [inhibitor, full curve, poor fit].
In the case of `COc1ccc(/C=C(\NC(=O)c2ccc(C)cc2)C(=O)N2CCCCC2)cc1`, the Potency is reported as inconclusive: 25.1 µM [inhibitor, single point].
With `O=c1[nH]c(N/N=C/c2ccc(O)cc2)nc2ccccc12` the Potency was inconclusive: 25.1 µM [inhibitor, full curve, poor fit].
For `C=CCNC(=O)C1CC(=O)N(c2ccc(OCC(=O)Nc3ccc(C)cc3)cc2)C1` (stereo not drawn), the Potency was inconclusive: 79.4 µM [inhibitor, partial curve].
With `Cc1ccc2c(c1)nnn2C1CCN(C(=O)NC23CC4CC(CC(C4)C2)C3)CC1` the Potency was inconclusive: 100 µM [inhibitor, single point].
`CCOC(=O)C1CCN(C(=O)Cn2cc(C(=O)C3CC3)c3ccccc32)CC1` was tested, and the Potency was inconclusive: 89.1 µM [inhibitor, single point].
